Measurements as given in paper PMC9727912.
No constants are given. Whether binding was seen depends on the method and setting. For some of these results: In cells and extracts the contact can be indirect. Some binding calls cover weakened binding; strength is not graded here.

Protein sequences, listed by entry. Tags and fused reporters are not part of them.
UniProt P14618: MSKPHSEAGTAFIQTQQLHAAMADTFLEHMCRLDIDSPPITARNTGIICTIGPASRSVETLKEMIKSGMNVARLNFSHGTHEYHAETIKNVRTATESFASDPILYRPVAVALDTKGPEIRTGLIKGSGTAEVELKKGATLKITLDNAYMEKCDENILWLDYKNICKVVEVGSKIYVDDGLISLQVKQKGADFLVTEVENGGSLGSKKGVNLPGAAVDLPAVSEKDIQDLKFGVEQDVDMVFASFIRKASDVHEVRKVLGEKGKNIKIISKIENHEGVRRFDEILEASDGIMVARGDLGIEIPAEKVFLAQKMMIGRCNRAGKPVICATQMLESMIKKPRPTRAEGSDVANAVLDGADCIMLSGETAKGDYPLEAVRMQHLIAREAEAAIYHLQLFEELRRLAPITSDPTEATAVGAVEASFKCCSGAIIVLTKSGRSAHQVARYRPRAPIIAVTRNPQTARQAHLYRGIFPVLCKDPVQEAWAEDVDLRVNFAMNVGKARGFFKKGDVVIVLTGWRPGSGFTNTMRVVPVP
UniProt P52294: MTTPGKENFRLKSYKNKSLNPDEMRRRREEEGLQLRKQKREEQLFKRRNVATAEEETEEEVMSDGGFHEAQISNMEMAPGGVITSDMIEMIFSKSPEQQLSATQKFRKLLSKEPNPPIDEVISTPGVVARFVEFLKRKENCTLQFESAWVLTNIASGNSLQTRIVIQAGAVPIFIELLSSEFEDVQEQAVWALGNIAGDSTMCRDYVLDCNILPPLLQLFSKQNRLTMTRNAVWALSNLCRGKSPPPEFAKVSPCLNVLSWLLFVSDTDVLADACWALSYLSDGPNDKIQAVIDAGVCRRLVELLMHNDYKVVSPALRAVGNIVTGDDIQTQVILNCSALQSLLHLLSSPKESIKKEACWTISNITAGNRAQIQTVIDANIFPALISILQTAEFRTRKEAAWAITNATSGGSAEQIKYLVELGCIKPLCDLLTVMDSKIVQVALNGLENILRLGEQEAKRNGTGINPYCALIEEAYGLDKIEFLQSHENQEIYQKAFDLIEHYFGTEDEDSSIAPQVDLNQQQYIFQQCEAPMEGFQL

Experiments:
[1] = biological target: pyruvate kinase isoform M2 (PKM2), endogenous (human (endogenous in HepG2)) (UniProt P14618); assay: co-IP; endogenous proteins, lysates of HepG2 cells bearing sh-ctrl or sh-MNX1-AS1 lentiviruses; immunoprecipitated with antibodies against PKM2 or importin α5; Western blotting
Flag-importin α5 = Flag-importin α5 (UniProt P52294); assay: co-IP; two-step (sequential) immunoprecipitation from HepG2 cells co-transfected with Flag-importin α5 and HA-PKM2: first anti-Flag, elution, then anti-HA; Western blotting; MNX1-AS1 RNA also captured
[2] = biological target: importin α5 (KPNA1), endogenous (human (endogenous in HepG2)) (UniProt P52294); assay: co-IP; endogenous proteins, lysates of HepG2 cells bearing sh-ctrl or sh-MNX1-AS1 lentiviruses; immunoprecipitated with antibodies against PKM2 or importin α5; Western blotting
[3] = biological target: importin α5 mammalian two-hybrid fusion (pBIND/pACT) (UniProt P52294); assay: two-hybrid; mammalian two-hybrid: pBIND (GAL4 DNA-binding domain) and pACT (VP16 activation domain) fusions with pG5luc in HepG2 cells stably expressing sh-ctrl or sh-MNX1-AS1; luciferase after 48 h

## importin α5 (KPNA1), endogenous (from UniProt P52294 1-538)
[1]
  binding: binds

## HA-PKM2 (from UniProt P14618 1-531) (enzyme)
Flag-importin α5
  binding: binds

## pyruvate kinase isoform M2 (PKM2), endogenous (from UniProt P14618 1-531) (enzyme)
[2]
  binding: binds

## PKM2 mammalian two-hybrid fusion (pBIND/pACT) (from UniProt P14618 1-531) (enzyme)
[3]
  binding: binds
